Data on three substances can be found in publication PMC8933279.

Sequences of proteins named here, by UniProt entry; tags and fusion partners are left off. A change or cut given only in a name is not applied to a line headed by its entry.
UniProt P51608: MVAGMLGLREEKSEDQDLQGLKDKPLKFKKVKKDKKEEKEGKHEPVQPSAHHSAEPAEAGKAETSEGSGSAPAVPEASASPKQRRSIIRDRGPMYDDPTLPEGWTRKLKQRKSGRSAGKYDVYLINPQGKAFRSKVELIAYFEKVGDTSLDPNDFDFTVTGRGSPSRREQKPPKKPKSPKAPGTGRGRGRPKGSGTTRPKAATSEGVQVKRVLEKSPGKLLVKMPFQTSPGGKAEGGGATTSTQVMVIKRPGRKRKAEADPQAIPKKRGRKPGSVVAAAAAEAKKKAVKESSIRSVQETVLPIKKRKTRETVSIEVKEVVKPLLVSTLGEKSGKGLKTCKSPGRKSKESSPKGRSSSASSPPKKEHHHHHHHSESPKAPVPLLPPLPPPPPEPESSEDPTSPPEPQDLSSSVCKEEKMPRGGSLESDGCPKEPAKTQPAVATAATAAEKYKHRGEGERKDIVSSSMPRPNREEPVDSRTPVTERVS
UniProt Q8NFU7: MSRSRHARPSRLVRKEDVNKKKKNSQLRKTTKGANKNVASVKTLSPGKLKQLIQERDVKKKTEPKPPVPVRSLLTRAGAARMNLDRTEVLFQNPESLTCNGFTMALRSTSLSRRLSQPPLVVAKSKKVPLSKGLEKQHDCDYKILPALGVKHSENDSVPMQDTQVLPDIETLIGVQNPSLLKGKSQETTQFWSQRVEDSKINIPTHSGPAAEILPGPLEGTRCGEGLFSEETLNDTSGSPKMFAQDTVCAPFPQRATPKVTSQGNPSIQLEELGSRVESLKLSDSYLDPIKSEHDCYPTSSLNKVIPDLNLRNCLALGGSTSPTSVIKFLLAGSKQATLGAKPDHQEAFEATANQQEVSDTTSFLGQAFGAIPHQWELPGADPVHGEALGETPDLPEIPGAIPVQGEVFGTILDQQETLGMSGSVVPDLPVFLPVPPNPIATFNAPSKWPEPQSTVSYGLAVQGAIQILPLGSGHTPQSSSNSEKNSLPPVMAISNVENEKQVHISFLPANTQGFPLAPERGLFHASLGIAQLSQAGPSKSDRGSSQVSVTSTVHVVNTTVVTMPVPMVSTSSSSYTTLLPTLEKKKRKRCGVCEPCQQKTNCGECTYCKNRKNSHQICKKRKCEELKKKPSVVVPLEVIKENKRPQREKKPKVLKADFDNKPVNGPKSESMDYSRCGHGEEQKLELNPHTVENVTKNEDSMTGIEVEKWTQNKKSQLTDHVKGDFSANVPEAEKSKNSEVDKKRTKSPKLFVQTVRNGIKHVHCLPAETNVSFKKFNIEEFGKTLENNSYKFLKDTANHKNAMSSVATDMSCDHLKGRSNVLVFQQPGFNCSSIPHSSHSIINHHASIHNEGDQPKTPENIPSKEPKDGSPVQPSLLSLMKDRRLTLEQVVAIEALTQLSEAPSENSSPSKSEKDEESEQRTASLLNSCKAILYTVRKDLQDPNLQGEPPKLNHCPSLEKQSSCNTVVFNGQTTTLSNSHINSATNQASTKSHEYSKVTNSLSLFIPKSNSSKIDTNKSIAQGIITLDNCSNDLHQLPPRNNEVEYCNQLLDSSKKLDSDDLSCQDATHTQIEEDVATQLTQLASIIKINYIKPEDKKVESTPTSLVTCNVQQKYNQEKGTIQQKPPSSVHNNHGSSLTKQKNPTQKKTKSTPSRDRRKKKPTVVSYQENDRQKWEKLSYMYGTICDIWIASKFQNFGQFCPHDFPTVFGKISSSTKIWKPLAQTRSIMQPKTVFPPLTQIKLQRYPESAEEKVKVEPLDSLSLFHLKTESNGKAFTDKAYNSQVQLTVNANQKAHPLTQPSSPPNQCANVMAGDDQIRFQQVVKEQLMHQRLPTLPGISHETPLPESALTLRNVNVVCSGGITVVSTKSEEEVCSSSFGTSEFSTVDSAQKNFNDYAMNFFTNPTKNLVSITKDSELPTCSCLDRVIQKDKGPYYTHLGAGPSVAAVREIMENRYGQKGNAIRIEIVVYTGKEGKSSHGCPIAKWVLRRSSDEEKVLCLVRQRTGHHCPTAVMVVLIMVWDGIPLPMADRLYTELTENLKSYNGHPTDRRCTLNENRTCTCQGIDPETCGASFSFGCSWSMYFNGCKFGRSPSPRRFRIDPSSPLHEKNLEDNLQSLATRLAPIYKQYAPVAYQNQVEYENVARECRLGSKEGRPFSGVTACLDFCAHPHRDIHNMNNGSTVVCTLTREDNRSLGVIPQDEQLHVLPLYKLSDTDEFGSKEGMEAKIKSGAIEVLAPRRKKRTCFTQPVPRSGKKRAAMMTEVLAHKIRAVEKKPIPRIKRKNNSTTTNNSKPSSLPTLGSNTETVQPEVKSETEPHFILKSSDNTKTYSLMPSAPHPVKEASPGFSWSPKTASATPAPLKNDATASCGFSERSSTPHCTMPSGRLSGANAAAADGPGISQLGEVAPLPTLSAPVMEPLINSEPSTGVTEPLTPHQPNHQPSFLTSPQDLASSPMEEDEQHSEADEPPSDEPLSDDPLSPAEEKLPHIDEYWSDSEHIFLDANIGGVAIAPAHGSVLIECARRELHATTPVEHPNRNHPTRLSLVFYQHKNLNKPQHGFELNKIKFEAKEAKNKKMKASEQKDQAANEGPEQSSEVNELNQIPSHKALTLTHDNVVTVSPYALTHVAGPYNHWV
UniProt Q13569: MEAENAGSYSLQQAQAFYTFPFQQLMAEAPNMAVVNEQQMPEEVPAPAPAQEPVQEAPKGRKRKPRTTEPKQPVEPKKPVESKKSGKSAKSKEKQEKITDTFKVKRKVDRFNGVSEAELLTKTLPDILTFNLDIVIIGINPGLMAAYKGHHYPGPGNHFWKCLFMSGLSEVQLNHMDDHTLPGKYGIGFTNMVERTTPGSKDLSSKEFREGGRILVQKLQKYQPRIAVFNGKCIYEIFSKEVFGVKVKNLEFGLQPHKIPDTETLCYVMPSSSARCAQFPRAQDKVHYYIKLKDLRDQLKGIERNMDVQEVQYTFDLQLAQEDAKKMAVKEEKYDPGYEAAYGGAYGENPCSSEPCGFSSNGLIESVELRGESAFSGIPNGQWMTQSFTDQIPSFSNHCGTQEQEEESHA
UniProt Q99612: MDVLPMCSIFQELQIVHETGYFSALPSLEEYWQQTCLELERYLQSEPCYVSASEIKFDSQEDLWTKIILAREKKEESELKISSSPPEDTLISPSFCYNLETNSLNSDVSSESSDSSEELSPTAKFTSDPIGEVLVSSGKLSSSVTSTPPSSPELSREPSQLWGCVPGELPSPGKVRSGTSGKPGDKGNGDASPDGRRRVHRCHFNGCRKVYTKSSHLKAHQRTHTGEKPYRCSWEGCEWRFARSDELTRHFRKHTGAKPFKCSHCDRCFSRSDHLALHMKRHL
UniProt P08047: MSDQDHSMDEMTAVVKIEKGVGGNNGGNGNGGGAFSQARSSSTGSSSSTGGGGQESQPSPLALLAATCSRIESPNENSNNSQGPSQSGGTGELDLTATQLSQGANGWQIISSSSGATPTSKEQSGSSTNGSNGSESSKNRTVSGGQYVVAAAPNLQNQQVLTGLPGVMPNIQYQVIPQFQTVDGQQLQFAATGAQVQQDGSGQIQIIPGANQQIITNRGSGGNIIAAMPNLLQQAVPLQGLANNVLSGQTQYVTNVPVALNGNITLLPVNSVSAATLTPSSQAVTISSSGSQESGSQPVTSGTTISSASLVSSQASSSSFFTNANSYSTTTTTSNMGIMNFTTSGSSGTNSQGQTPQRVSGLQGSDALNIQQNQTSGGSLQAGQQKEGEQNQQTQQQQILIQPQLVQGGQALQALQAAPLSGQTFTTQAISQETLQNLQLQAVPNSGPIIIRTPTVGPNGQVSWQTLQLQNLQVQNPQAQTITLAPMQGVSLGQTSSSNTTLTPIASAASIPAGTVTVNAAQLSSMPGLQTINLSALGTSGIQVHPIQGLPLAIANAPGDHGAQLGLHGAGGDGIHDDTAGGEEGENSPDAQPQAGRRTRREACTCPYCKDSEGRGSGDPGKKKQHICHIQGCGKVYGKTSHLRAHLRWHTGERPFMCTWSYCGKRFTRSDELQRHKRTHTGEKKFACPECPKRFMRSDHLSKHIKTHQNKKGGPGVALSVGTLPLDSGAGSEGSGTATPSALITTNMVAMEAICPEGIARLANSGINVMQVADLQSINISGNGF
UniProt Q15796: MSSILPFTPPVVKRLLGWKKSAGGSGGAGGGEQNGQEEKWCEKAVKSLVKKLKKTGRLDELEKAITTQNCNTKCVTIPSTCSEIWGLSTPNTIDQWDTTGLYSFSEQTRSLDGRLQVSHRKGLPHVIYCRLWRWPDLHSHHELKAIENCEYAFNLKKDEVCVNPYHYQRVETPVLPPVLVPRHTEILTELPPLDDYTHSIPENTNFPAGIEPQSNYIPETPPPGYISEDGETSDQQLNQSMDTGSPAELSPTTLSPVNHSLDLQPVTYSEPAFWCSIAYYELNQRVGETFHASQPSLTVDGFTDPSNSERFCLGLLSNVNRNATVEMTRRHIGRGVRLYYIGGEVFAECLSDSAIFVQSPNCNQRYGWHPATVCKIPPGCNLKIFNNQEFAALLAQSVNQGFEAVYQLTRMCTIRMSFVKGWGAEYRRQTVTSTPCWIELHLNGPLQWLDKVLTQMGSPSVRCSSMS

In assay [1] the target is methyl-CpG-binding protein 2 (MeCP2) (human (endogenous in A549)) (UniProt P51608). Put plainly: co-IP; A549 cell lysate, endogenous proteins, cells with or without TGF-β; co-IP kit (Thermo Fisher) with 10 ug immobilised affinity-purified antibody, overnight at 4 °C, eluate by western blotting. In general terms: Immunoblotting shows a protein as a band on a membrane.
Assay [2] has as its target Tet1 (human (endogenous in A549)) (UniProt Q8NFU7). The description is as above.
Assay [3] has as its target thymine DNA glycosylase (TDG) (human (endogenous in NCI-H460 and A549)) (UniProt Q13569). The assay is described as above.
The target is the same in assay [4]. Put plainly: co-IP; NCI-H460 cell lysate, endogenous proteins; co-IP kit (Thermo Fisher) with 10 ug immobilised affinity-purified antibody, overnight at 4 °C, eluate by western blotting.

Results are given in words; binding and its absence hold for the method and conditions named. In cells and extracts the contact can be indirect. Some entries that bind do so weakly or less than the wild type.

With “Krueppel-like factor 6 (KLF6) (from UniProt Q99612 1-283)”, the binding result in assay [1] is listed as “binds”.
Turning to Sp1 (from UniProt P08047 1-785), the binding entry in assay [2] and in assay [3] was “binds” throughout.
Consider “SMAD2/3 (from UniProt Q15796 1-467; P84022 1-425) (complex)”, for which, in assay [4], the binding result is given as “binds”.
